The labels stand for the following.
B1: Ilv2 (protein, UniProt P07342 91-687)
chain: GLTGGQIFNEMMSRQNVDTVFGYPGGAILPVYDAIHNSDKFNFVLPKHEQGAGHMAEGYARASGKPGVVLVTSGPGATNVVTPMADAFADGIPMVVFTGQVPTSAIGTDAFQEADVVGISRSCTKWNVMVKSVEELPLRINEAFEIATSGRPGPVLVDLPKDVTAAILRNPIPTKTTLPSNALNQLTSRAQDEFVMQSINKAADLINLAKKPVLYVGAGILNHADGPRLLKELSDRAQIPVTTTLQGLGSFDQEDPKSLDMLGMHGCATANLAVQNADLIIAVGARFDDRVTGNISKFAPEARRAAAEGRGGIIHFEVSPKNINKVVQTQIAVEGDATTNLGKMMSKIFPVKERSEWFAQINKWKKEYPYAYMEETPGSKIKPQTVIKKLSKVANDTGRHVIVTTGVGQHQMWAAQHWTWRNPHTFITSGGLGTMGYGLPAAIGAQVAKPESLVIDIDGDASFNMTLTELSSAVQAGTPVKILILNNEEQGMVTQWQSLFYEHRYSHTHQLNPDFIKLAEAMGLKGLRVKKQEELDAKLKEFVSTKGPVLLEVEVDKKVPVLPMVAGGSGLDEFINFDPEVERQQTELRHKRTGGKH
B2: Mdj1 (member of the DnaJ co-chaperone family of the mitochondrial Hsp70 system) (protein, UniProt P35191 56-511)
chain: NEAFKDPYDTLGLKKSATGAEIKKAYYKLAKKYHPDINKEPDAEKKFHDLQNAYEILSDETKRQQYDQFGPAAFGGGGAAGGAGGGSGSPFGSQFHDFSGFTSAGGSPFGGINFEDLFGAAFGGGGRGSGGASRSSSMFRQYRGDPIEIVHKVSFKDAVFGSKNVQLRFSALDPCSTCSGTGMKPNTHKVSCSTCHGTGTTVHIRGGFQMMSTCPTCNGEGTMKRPQDNCTKCHGEGVQVNRAKTITVDLPHGLQDGDVVRIPGQGSYPDIAVEADLKDSVKLSRGDILVRIRVDKDPNFSIKNKYDIWYDKEIPITTAALGGTVTIPTVEGQKIRIKVAPGTQYNQVISIPNMGVPKTSTIRGDMKVQYKIVVKKPQSLAEKCLWEALADVTNDDMAKKTMQPGTAAGTAINEEILKKQKQEEEKHAKKDDDNTLKRLENFITNTFRKIKGDKKN
B3: Mdh1 (protein, UniProt P17505 18-334)
chain: YKVTVLGAGGGIGQPLSLLLKLNHKVTDLRLYDLKGAKGVATDLSHIPTNSVVKGFTPEEPDGLNNALKDTDMVLIPAGVPRKPGMTRDDLFAINASIVRDLAAATAESAPNAAILVISNPVNSTVPIVAQVLKNKGVYNPKKLFGVTTLDSIRAARFISEVENTDPTQERVNVIGGHSGITIIPLISQTNHKLMSDDKRHELIHRIQFGGDEVVKAKNGAGSATLSMAHAGAKFANAVLSGFKGERDVIEPSFVDSPLFKSEGIEFFASPVTLGPDGIEKIHPIGELSSEEEEMLQKCKETLKKNIEKGVNFVASK

Chains of the proteins cited; added tags and fusions are not shown. Residues count along the entry.
UniProt P33416, residues 45-811: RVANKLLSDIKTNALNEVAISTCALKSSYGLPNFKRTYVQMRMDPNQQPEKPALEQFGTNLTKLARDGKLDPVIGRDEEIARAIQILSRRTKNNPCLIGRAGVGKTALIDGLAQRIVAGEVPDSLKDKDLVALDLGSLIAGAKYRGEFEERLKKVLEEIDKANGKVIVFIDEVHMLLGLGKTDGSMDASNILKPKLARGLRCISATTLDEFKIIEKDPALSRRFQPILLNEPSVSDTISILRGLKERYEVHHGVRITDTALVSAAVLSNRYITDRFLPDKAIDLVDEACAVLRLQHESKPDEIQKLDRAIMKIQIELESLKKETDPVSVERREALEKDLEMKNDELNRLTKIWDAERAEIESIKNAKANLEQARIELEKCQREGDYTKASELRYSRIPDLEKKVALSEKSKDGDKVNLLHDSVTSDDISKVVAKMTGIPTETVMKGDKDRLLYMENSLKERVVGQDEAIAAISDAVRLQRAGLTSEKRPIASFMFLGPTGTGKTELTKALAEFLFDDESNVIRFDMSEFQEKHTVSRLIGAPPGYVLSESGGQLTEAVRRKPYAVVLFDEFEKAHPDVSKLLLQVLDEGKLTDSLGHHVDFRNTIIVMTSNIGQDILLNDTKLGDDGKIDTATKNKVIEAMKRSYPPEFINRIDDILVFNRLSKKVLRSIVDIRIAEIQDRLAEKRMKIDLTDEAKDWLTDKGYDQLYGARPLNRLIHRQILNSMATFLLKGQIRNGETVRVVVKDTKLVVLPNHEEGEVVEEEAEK

These are yes or no findings as the source states them, for the method shown. Binding seen in cells or lysates may run through a third protein. Some entries that bind do so weakly or less than the wild type.

The target of this assay is Hsp78-6xHis (wild-type Hsp78 with a C-terminal 6x polyhistidine-tag) (S. cerevisiae) (UniProt P33416). Briefly: pull-down.
For the molecule B1, the binding result was “binds”.

For the molecule B2, the binding entry is “binds”.

For the molecule B3, the binding result is listed as “no binding”.

The values above are taken from doi:10.1101/2022.01.28.478199.
